Source: the supplement of paper PMC11732987, “Enantioselective OTUD7B fragment discovery through chemoproteomics screening and high-throughput optimisation” (Communications Chemistry, 2025)
The list shows a part of the results. The data scatter; read single values as rough.

Chains of the proteins cited; added tags and fusions are not shown. Lines headed by an entry give the natural chain unless they say otherwise; changes in a name come on top. Residues count along the entry.
UniProt Q8N0W3, 580-605: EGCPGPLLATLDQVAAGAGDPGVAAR
UniProt O14976: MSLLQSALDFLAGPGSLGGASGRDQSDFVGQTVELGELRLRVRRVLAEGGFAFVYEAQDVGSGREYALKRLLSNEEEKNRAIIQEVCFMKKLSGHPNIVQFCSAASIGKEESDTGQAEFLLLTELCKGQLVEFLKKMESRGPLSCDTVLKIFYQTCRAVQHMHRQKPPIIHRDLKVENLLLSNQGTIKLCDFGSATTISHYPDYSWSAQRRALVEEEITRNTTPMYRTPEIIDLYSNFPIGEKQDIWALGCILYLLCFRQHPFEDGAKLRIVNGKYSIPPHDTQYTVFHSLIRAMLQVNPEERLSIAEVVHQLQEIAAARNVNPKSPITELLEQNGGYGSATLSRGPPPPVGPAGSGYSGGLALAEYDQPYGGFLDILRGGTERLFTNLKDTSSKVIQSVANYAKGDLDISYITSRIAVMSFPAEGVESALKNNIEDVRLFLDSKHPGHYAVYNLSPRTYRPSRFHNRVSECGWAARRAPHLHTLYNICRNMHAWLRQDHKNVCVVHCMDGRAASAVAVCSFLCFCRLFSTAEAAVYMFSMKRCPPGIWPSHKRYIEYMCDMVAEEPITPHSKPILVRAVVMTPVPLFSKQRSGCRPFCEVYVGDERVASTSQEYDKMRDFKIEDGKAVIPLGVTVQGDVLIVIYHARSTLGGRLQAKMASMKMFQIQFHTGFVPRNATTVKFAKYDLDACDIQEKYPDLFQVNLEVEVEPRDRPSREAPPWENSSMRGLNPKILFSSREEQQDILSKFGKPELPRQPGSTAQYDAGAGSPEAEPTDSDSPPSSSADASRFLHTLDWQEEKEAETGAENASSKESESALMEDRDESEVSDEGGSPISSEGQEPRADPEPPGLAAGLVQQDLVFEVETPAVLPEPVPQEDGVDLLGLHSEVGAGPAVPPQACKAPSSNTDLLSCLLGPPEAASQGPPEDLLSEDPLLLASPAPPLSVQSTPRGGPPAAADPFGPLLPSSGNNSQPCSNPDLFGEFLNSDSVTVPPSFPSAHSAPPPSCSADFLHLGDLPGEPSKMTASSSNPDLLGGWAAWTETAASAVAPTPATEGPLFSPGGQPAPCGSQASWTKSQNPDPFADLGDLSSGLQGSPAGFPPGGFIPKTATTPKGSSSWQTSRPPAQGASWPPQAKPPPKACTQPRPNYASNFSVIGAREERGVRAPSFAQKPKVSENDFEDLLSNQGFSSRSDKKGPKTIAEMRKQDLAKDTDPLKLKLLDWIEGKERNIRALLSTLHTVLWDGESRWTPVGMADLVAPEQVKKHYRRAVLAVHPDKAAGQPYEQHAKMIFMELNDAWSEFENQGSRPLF
UniProt Q13480: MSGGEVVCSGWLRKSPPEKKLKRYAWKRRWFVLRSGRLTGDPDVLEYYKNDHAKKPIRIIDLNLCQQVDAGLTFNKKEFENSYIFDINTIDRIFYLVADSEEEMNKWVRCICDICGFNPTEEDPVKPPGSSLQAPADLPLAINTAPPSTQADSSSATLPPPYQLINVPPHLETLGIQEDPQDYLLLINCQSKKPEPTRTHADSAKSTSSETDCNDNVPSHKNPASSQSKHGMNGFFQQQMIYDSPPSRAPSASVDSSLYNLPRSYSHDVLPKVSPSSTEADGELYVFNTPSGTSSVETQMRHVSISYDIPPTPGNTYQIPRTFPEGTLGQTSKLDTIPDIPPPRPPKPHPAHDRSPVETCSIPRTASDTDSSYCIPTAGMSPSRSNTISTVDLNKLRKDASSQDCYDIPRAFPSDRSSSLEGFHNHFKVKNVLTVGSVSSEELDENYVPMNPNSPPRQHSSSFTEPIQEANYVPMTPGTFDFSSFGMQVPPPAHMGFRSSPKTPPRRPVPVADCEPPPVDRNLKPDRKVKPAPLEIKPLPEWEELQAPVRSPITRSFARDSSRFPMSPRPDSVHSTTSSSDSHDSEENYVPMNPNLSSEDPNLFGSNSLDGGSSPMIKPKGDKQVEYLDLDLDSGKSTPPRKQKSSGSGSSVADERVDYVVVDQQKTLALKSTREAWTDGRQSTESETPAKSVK
UniProt Q8N3X1, 655-674: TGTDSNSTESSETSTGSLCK
UniProt Q14697, 494-518: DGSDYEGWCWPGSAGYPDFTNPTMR
UniProt Q13642: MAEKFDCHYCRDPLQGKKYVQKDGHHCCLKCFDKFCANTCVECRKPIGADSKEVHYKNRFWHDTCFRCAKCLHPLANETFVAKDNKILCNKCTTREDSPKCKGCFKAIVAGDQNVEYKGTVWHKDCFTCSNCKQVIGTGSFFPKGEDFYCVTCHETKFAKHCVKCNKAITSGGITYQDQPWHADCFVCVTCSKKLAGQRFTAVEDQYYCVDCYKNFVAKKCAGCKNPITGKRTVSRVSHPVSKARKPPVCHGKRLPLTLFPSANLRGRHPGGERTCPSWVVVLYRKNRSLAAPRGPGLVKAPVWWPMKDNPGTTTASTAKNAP
UniProt Q96AC1, 498-525: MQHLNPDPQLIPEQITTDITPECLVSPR
UniProt P98177: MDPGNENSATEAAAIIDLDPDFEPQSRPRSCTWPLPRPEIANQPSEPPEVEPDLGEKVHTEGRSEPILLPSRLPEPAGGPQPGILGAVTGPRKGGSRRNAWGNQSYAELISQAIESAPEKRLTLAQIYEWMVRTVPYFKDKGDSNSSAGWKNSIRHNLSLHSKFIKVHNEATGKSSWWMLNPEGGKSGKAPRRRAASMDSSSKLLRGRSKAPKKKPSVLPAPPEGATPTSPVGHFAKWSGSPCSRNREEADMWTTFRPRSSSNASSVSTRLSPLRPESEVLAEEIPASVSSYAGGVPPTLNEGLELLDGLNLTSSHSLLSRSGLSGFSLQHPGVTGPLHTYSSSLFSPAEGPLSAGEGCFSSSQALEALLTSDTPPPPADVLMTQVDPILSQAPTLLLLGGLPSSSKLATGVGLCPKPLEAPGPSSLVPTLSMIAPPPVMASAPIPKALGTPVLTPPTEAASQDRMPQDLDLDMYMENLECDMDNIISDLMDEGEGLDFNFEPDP
UniProt Q6PIW4, 347-375: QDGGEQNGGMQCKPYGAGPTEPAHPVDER
UniProt Q9Y2H6, 549-573: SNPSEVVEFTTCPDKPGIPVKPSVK
UniProt O94915: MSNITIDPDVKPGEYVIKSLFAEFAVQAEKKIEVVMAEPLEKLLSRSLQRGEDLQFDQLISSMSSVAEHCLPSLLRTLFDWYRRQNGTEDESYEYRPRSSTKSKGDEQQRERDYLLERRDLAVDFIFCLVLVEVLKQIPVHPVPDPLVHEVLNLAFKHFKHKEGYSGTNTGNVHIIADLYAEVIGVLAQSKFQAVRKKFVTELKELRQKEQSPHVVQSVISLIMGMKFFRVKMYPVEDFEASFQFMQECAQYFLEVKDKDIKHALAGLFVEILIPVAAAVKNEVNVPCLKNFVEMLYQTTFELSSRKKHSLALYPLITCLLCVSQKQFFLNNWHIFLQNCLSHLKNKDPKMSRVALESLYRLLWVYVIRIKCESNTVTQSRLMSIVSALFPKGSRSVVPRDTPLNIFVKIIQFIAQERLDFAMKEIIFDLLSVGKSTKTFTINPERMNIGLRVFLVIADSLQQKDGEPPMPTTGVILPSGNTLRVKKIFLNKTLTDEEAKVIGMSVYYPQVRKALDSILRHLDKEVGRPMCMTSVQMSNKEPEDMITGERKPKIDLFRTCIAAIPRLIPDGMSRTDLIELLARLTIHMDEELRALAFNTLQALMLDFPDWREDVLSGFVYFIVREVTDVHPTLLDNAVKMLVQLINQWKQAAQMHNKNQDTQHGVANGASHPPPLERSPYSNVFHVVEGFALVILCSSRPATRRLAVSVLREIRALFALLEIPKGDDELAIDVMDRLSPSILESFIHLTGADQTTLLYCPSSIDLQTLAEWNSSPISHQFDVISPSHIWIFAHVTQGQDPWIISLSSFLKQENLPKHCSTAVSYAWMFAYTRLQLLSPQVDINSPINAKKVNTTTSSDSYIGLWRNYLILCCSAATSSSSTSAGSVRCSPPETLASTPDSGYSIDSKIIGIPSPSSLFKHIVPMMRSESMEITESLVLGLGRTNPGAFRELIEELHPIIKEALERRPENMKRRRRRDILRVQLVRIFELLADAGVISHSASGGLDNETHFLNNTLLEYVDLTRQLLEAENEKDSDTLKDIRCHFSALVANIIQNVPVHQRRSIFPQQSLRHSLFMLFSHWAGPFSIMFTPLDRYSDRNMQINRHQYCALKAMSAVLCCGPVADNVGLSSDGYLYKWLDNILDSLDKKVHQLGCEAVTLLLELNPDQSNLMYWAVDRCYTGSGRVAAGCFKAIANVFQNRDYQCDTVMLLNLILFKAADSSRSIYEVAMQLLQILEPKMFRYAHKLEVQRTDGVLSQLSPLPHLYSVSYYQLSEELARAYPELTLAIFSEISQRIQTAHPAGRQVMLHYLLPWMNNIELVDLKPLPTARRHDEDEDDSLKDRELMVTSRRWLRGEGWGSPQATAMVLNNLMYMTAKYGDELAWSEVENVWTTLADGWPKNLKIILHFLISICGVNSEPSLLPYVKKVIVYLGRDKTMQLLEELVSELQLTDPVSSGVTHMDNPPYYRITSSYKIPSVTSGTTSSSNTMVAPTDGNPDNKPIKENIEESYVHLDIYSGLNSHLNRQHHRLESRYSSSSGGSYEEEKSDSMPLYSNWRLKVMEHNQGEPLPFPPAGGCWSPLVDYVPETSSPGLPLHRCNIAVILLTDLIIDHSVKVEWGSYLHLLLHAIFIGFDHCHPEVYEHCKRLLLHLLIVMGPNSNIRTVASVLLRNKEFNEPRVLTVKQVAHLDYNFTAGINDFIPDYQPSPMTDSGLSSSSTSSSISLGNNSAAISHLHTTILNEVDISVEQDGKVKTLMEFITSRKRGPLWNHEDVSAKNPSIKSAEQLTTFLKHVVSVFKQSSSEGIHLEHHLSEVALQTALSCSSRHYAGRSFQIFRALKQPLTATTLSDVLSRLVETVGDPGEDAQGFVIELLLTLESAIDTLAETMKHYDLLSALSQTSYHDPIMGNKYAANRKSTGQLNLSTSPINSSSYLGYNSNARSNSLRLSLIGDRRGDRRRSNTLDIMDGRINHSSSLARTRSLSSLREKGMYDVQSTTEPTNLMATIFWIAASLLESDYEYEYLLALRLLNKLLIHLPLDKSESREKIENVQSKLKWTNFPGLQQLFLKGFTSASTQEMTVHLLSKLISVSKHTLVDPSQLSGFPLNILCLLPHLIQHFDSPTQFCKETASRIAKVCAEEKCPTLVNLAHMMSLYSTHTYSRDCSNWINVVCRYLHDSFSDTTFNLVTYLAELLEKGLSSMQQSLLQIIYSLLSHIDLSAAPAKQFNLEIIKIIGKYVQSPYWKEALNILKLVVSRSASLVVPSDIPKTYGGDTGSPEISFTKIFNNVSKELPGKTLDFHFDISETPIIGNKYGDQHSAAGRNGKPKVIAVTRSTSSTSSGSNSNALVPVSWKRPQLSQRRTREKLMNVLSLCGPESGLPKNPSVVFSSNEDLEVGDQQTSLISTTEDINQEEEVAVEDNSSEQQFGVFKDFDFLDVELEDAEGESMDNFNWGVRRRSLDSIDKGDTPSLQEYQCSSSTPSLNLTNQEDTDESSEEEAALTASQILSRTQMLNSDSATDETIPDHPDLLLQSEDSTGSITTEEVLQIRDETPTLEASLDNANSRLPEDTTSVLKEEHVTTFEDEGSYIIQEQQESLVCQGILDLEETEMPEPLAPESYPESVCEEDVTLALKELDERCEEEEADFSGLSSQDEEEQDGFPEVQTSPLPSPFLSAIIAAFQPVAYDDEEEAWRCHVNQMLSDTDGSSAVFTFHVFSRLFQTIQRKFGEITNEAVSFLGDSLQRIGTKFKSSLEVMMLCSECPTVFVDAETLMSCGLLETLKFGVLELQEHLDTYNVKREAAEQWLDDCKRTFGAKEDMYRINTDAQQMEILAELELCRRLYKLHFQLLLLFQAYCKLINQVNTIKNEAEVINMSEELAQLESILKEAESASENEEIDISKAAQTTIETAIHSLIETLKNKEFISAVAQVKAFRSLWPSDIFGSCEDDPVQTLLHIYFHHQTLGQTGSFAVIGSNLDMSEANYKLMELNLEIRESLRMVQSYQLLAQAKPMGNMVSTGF
UniProt Q96IG2: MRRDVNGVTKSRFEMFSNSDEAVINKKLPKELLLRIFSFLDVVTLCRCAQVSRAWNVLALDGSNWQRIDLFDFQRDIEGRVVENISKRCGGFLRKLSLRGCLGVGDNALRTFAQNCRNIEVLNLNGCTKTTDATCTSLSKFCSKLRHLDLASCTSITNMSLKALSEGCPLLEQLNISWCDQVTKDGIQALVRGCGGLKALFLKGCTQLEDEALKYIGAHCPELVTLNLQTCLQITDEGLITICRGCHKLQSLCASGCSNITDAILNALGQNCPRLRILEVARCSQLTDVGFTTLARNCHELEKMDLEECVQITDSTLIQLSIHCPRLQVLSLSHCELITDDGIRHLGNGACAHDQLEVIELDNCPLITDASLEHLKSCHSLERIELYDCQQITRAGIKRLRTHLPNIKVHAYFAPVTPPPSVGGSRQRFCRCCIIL
UniProt Q9BZ67, 236-255: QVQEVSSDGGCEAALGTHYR

Key:
[1] = compound: ClCC(=O)N[C@@H]1CCCc2ccccc12; test: log2 mean competition ratio of IA-DTB cysteine labelling (DMSO/compound) (log2 ratio); higher = stronger cysteine engagement by compound; conditions: treatment time: 4 h, cell line lysate: HEK293T
Method: (§1)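 IA-DTB competitive cysteine chemoproteomics in HEK293T RIPA lysate. Lysates were treated with compound 29 or 30 at 50 or 200 µM for 4 h, then IA-DTB (500 µM, 1 h), trypsin-digested, NeutrAvidin-enriched and analysed by diaPASEF. Competition ratio = intensity DMSO / intensity compound (n=4 treated, n=64 DMSO); binding: mean log2 CR ≥ 1 and p ≤ 0.05 plus QC filters. Target is the cysteine site.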

[2] = compound: ClCC(=O)N[C@H]1CCCc2ccccc12; test: as above; conditions: treatment time: 4 h, cell line lysate: HEK293T
Method: as §1

Target | log2 mean competition ratio ([1]; 50 µM) | log2 mean competition ratio ([1]; 200 µM) | log2 mean competition ratio ([2]; 50 µM) | log2 mean competition ratio ([2]; 200 µM)
FCHSD2 C105 (UniProt O94868) | -0.104 | 0.133 |  | 
FCSK C582 (UniProt Q8N0W3) | -0.163 | 0.457 |  | 
GAB2 C406 (UniProt Q9UQC2) | 0.113 | -0.404 |  | 
GABPA C338 (UniProt Q06546) | 0.181 | -0.32 |  | 
FKBP10 C447 (UniProt Q96AY3) | -0.288 | 0.225 |  | 
FER C796 (UniProt P16591) | 0.124 | 0.115 |  | 
FHL2 C254 (UniProt Q14192) | 0.622 | 0.154 |  | 
FBXO38 C401 (UniProt Q6PIJ6) | -0.151 | -0.192 |  | 
GAK C691 (UniProt O14976) | 0.00601 | -0.236 |  | 
FPGS C171 (UniProt Q05932) | -0.0838 | -0.33 |  | 
FYN C404 (UniProt P06241) | 0.12 | 0.137 |  | 
GABPA C421 (UniProt Q06546) | -0.0447 | 0.186 |  | 
GAB1 C405 (UniProt Q13480) | -0.00819 | -0.122 |  | 
FOCAD C657 (UniProt Q5VW36) | 0.0593 | -0.0474 |  | 
FASN C2202 | -0.159 | -0.36 |  | 
FASN C1227 | -0.299 | -0.176 |  | 
FXYD6 C63 | 0.473 | -0.116 |  | 
FASN C1828 | 0.412 | 0.43 |  | 
GART C298 | -0.0901 | -0.378 |  | 
FBN2 C89 (UniProt P35556) | 0.109 | 0.238 |  | 
FNBP4 C673 (UniProt Q8N3X1) | -0.366 | 0.361 |  | 
FXR2 C151 (UniProt P51116) | -0.245 | -0.00011 |  | 

Target | log2 mean competition ratio ([1]; 50 µM) | log2 mean competition ratio ([1]; 200 µM) | log2 mean competition ratio ([2]; 50 µM) | log2 mean competition ratio ([2]; 200 µM)
FCHSD2 C354 (UniProt O94868) | 0.0532 | 0.0495 |  | 
GART C291 | 0.105 | 0.252 |  | 
FSCN1 C61 (UniProt Q16658) | -0.0453 | 0.0374 |  | 
FZD3 C600 | 0.135 | 0.232 |  | 
GANAB C502 (UniProt Q14697) | -0.25 | 0.343 |  | 
GAPVD1 C293 (UniProt Q14C86) | -0.0642 | -0.0438 |  | 
FHOD1 C373 (UniProt Q9Y613) | -0.0983 | -0.0724 |  | 
FLNA C1018 | -0.153 | 0.101 |  | 
GAREM1 C796 | 0.0375 | 0.443 |  | 
FHL1 C71 (UniProt Q13642) | 0.278 | -0.252 |  | 
FHL3 C10 (UniProt Q13643) | 0.117 | 0.0488 |  | 
FKBP15 C1031 (UniProt Q5T1M5) | -0.21 | -0.231 |  | 
FBXO17 C114 | -0.0265 | -0.353 |  | 
FERMT2 C520 (UniProt Q96AC1) | 0.114 | 0.137 |  | 
FLII C46 (UniProt Q13045) | 0.433 | -0.244 |  | 
FN3KRP C24 (UniProt Q9HA64) | 0.465 | 0.221 | 0.414 | -0.058
FOXO4 C243 (UniProt P98177) | 0.0209 | 0.251 | 0.0576 | 0.249
FLOT2 C88 (UniProt Q14254) | 0.0759 | 0.287 | -0.216 | -0.288
FIGNL1 C358 (UniProt Q6PIW4) | -0.358 | 0.000382 | 0.105 | -0.00935
FTO C326 (UniProt Q9C0B1) | -0.247 | -0.0281 | 0.109 | 0.118
G3BP2 C73 (UniProt Q9UN86) | 0.234 | 0.0806 | 0.266 | 0.21
FNDC3A C560 (UniProt Q9Y2H6) | -0.524 | 0.0767 | -0.903 | -0.294

3 records drawn at random from the list so far, as already listed:
Target | log2 mean competition ratio ([1]; 50 µM) | log2 mean competition ratio ([1]; 200 µM) | log2 mean competition ratio ([2]; 50 µM) | log2 mean competition ratio ([2]; 200 µM)
FLOT2 C88 (UniProt Q14254) | 0.0759 | 0.287 | -0.216 | -0.288
FHL3 C10 (UniProt Q13643) | 0.117 | 0.0488 |  | 
FKBP15 C1031 (UniProt Q5T1M5) | -0.21 | -0.231 |  | 

The listing continues:

Target | log2 mean competition ratio ([1]; 50 µM) | log2 mean competition ratio ([1]; 200 µM) | log2 mean competition ratio ([2]; 50 µM) | log2 mean competition ratio ([2]; 200 µM)
FHOD1 C31 (UniProt Q9Y613) | 0.112 | 0.0336 | -0.667 | -0.14
FBLN1 C373 (UniProt P23142) | 0.08 | 0.148 | -0.149 | 0.117
GARS1 C180 | -0.162 | 0.0134 | 0.203 | -0.282
FOXF2 C157 | 0.326 | 0.637 | -0.0821 | 0.578
FARSB C255 (UniProt Q9NSD9) | -0.178 | -0.24 | -0.272 | -0.129
FOXC1 C233 | -0.351 | -0.284 | -0.365 | -0.149
FLII C289 (UniProt Q13045) | -0.0548 | -0.0193 | 0.0161 | 0.0642
FUCA2 C269 (UniProt Q9BTY2) | 0.0972 | 0.272 | 0.387 | 0.356
FRYL C1177 (UniProt O94915) | 0.16 | 0.079 | -0.176 | -0.143
FAT1 C674 (UniProt Q14517) | -0.23 | -0.194 | -0.3 | -0.112
GAK C472 (UniProt O14976) | 0.25 | 0.0554 | 0.0794 | 0.0125
FKBP4 C342 (UniProt Q02790) | 0.28 | 0.0631 | 0.11 | -0.0402
FARS2 C344 (UniProt O95363) | -0.129 | -0.172 | -0.0109 | -0.0775
FASN C212 | -0.118 | 0.14 | -0.231 | 0.124
FLNC C2679 (UniProt Q14315) | -0.132 | -0.307 | 0.202 | -0.0604
FOXM1 C56 | 0.113 | 0.681 | 0.015 | 0.196
FKBP10 C222 (UniProt Q96AY3) | -0.233 | -0.0875 | -0.0219 | 0.248
GAK C87 (UniProt O14976) | 0.341 | 0.34 | 0.0213 | 0.309
FBXL20 C298 (UniProt Q96IG2) | 0.186 | -0.0931 | 0.0903 | -0.163
FHIP2B C93 | -0.296 | -0.328 | -0.399 | 0.0185
FRMD8 C246 (UniProt Q9BZ67) | -0.645 | 0.519 | -0.233 | 0.457
